This is an account of results in patent US11712480 (dated 2023).

The series in a line: general procedure: solution-phase peptide synthesis; HATU/DIPEA; DMT-MM or 2-chloro-4,6-dimethoxy-1,3,5-triazine with N-methyl morpho. The settings on record: late stage modification step.

On to “1-(21-amino-4,7,10,13,16,19-hexaoxahenicosan-1-oyl)-2-methyl-L-prolyl-N-[(3R,4S,5S)-1-{(2S)-2-[(1R,2R)-3-{[(1S)-1-carboxy-2-phenylethyl]amino}-1-methoxy-2-methyl-3-oxopropyl]pyrrolidin-1-yl}-3-methoxy-5-methyl-1-oxoheptan-4-yl]”, for which the step yield (trifluoroacetic acid salt) was determined as 71%. Turning to “N^2-acetyl-N^6-{[2-(methylsulfonyl)pyrimidin-5-yl]carbonyl}-L-lysyl-L-valyl-N-{4-[(8S,11S,12R)-11-[(2S)-butan-2-yl]-12-(2-{(2S)-2-[(1R,2R)-1-methoxy-2-methyl-3-oxo-3-{[(1S)-2-phenyl-1-(1,3-thiazol-2-yl)ethyl]amino}propyl]pyrrolidin-1-yl}-2-oxoethyl)-5,5,10-trimethyl-3,6,9-trioxo-8-(propan-2-yl)-2,13-dioxa-4,7,10-triazatetradec-1-yl]phenyl}-N^5-carbamoyl-L-ornithinamide”, under “trifluoroacetic acid salt (some compounds)”, the step yield is reported as 89%.
